Results are given in words; binding and its absence hold for the method and conditions named. Some entries that bind do so weakly or less than the wild type.

The assay concerns the target T1, DMC1 (UniProt Q14565).
T1 sequence: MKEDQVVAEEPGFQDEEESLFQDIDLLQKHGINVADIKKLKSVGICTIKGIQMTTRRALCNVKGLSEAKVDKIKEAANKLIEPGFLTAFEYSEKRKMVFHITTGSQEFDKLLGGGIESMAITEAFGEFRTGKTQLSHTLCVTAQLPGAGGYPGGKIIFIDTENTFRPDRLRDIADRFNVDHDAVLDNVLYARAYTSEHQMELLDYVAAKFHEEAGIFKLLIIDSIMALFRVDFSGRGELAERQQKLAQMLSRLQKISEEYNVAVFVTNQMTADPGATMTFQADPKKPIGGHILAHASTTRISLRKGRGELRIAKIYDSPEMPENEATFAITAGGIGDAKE
Nature of the assay: native gel or EMSA. For orientation: In EMSA bound probe runs differently from free probe, usually more slowly.

B1: human FIGNL1ΔN (FIGNL1 without the N-terminal 284 aa) (domain or fragment, UniProt Q6PIW4 285-674)
chain: GPKEDSSLPTFKTAKEQLWVDQQKKYHQPQRASGSSYGGVKKSLGASRSRGILGKFVPPIPKQDGGEQNGGMQCKPYGAGPTEPAHPVDERLKNLEPKMIELIMNEIMDHGPPVNWEDIAGVEFAKATIKEIVVWPMLRPDIFTGLRGPPKGILLFGPPGTGKTLIGKCIASQSGATFFSISASSLTSKWVGEGEKMVRALFAVARCQQPAVIFIDEIDSLLSQRGDGEHESSRRIKTEFLVQLDGATTSSEDRILVVGATNRPQEIDEAARRRLVKRLYIPLPEASARKQIVINLMSKEQCCLSEEEIEQIVQQSDAFSGADMTQLCREASLGPIRSLQTADIATITPDQVRPIAYIDFENAFRTVRPSVSPKDLELYENWNKTFGCGK
As for B1, the binding entry was “binds”.

The values are drawn from doi:10.1101/2023.05.17.541096 (bioRxiv, 2023).
